# Data as given in PubChem BioAssay AID1259254 (NCATS, 2017).
# Test: 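Gene knock-downs that lead to re-replication, shown by excess G2 DNA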 (primary screen)
# Cell system: human HCT116 colorectal cancer cells
# Knock-down reagent: single siRNA against human genes
# Time to read-out: 3 days
# Measured: 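Nuclei stained with Hoechst and imaged; cell-cycle phase assigned by DNA content; G2 share scaled per plate, non-targeting siRNA 0%, GMNN siRNA 100%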
# Reading the numbers: G2 robust z-score and G2 cells, % of GMNN control: higher = more G2 cells, more excess DNA replication
# Call rule: 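Active siRNAs have a G2 robust z of 5 or more median absolute deviations over the median, which in these data means about 38% or higher of GMNN control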
# Here is an unselected part of about 59,000 deposited reagents. About 1,550 of all reagents (2.6%) were called active. 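G2 share is only a proxy for re-replication; each gene was hit by three separate siRNAs, and active genes were retested.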 Reagents against one gene are numbered here. Not all columns of the deposit are shown. The record does not give: the amount of reagent.
gene,reagent,G2 robust z-score,"G2 cells, % of GMNN control",Outcome
MRPL58 (mitochondrial ribosomal protein L58),1,-0.399,0.159,inactive
MRPL58 (mitochondrial ribosomal protein L58),2,2.89,23.3,inactive
MRPL58 (mitochondrial ribosomal protein L58),3,-0.724,-2.12,inactive
BFSP2 (beaded filament structural protein 2),1,0.62,7.33,inactive
BFSP2 (beaded filament structural protein 2),2,1.7,15,inactive
BFSP2 (beaded filament structural protein 2),3,1.43,13,inactive
MEOX2 (mesenchyme homeobox 2),1,1.92,16.5,inactive
MEOX2 (mesenchyme homeobox 2),2,0.409,5.85,inactive
MEOX2 (mesenchyme homeobox 2),3,-1.01,-4.11,inactive
ADO (2-aminoethanethiol dioxygenase),1,1.69,14.8,inactive
ADO (2-aminoethanethiol dioxygenase),2,3.52,27.8,inactive
ADO (2-aminoethanethiol dioxygenase),3,0.999,10,inactive
CNDP1 (carnosine dipeptidase 1),1,2.47,20.4,inactive
CNDP1 (carnosine dipeptidase 1),2,-0.475,-0.378,inactive
CNDP1 (carnosine dipeptidase 1),3,-0.264,1.11,inactive
PEX14 (peroxisomal biogenesis factor 14),1,-1.25,-5.8,inactive
PEX14 (peroxisomal biogenesis factor 14),2,-1.24,-5.78,inactive
PEX14 (peroxisomal biogenesis factor 14),3,1.45,13.2,inactive
SMIM30 (small integral membrane protein 30),1,-0.0864,2.36,inactive
SMIM30 (small integral membrane protein 30),2,-1.01,-4.11,inactive
SMIM30 (small integral membrane protein 30),3,0.759,8.31,inactive
YIPF5 (Yip1 domain family member 5),1,-0.146,1.94,inactive
YIPF5 (Yip1 domain family member 5),2,0.555,6.87,inactive
YIPF5 (Yip1 domain family member 5),3,1.21,11.5,inactive
LHCGR (luteinizing hormone/choriogonadotropin receptor),1,0.00615,3.01,inactive
LHCGR (luteinizing hormone/choriogonadotropin receptor),2,-0.392,0.213,inactive
LHCGR (luteinizing hormone/choriogonadotropin receptor),3,0.353,5.45,inactive
SFTPB (surfactant protein B),1,0.2,4.37,inactive
SFTPB (surfactant protein B),2,0.927,9.49,inactive
SFTPB (surfactant protein B),3,0.59,7.12,inactive
HHIPL1 (HHIP like 1),1,1.58,14.1,inactive
HHIPL1 (HHIP like 1),2,-0.458,-0.254,inactive
HHIPL1 (HHIP like 1),3,-1.13,-4.96,inactive
DRC1 (dynein regulatory complex subunit 1),1,-0.259,1.14,inactive
DRC1 (dynein regulatory complex subunit 1),2,1.6,14.2,inactive
DRC1 (dynein regulatory complex subunit 1),3,0.268,4.85,inactive
SFMBT2 (Scm like with four mbt domains 2),1,1.92,16.4,inactive
SFMBT2 (Scm like with four mbt domains 2),2,-0.973,-3.88,inactive
SFMBT2 (Scm like with four mbt domains 2),3,-0.701,-1.96,inactive
TRIM42 (tripartite motif containing 42),1,0.428,5.98,inactive
TRIM42 (tripartite motif containing 42),2,-0.517,-0.669,inactive
TRIM42 (tripartite motif containing 42),3,-0.471,-0.348,inactive
LDOC1 (LDOC1 regulator of NFKB signaling),1,1.74,15.2,inactive
LDOC1 (LDOC1 regulator of NFKB signaling),2,-0.839,-2.94,inactive
LDOC1 (LDOC1 regulator of NFKB signaling),3,0.0598,3.39,inactive
FUNDC2P2 (FUN14 domain containing 2 pseudogene 2),1,1.44,13.1,inactive
FUNDC2P2 (FUN14 domain containing 2 pseudogene 2),2,-0.0448,2.65,inactive
FUNDC2P2 (FUN14 domain containing 2 pseudogene 2),3,-0.454,-0.227,inactive
AQP6 (aquaporin 6),1,-0.211,1.48,inactive
AQP6 (aquaporin 6),2,-0.874,-3.18,inactive
AQP6 (aquaporin 6),3,-0.0271,2.78,inactive
EBNA1BP2 (EBNA1 binding protein 2),1,2.84,23,inactive
EBNA1BP2 (EBNA1 binding protein 2),2,0.87,9.09,inactive
EBNA1BP2 (EBNA1 binding protein 2),3,1.78,15.5,inactive
"NUBP1 (NUBP iron-sulfur cluster assembly factor 1, cytosolic)",1,-0.896,-3.34,inactive
"NUBP1 (NUBP iron-sulfur cluster assembly factor 1, cytosolic)",2,-0.81,-2.73,inactive
"NUBP1 (NUBP iron-sulfur cluster assembly factor 1, cytosolic)",3,-1.18,-5.36,inactive
KCNK7 (potassium two pore domain channel subfamily K member 7),1,2.44,20.1,inactive
KCNK7 (potassium two pore domain channel subfamily K member 7),2,1.71,15,inactive
KCNK7 (potassium two pore domain channel subfamily K member 7),3,-0.82,-2.8,inactive
CHST13 (carbohydrate sulfotransferase 13),1,-0.198,1.57,inactive
CHST13 (carbohydrate sulfotransferase 13),2,-0.0443,2.66,inactive
CHST13 (carbohydrate sulfotransferase 13),3,-0.0746,2.44,inactive
IL22 (interleukin 22),1,0.0947,3.63,inactive
IL22 (interleukin 22),2,-0.841,-2.95,inactive
IL22 (interleukin 22),3,-1.03,-4.27,inactive
C22orf42 (chromosome 22 open reading frame 42),1,-0.689,-1.88,inactive
C22orf42 (chromosome 22 open reading frame 42),2,-0.831,-2.88,inactive
C22orf42 (chromosome 22 open reading frame 42),3,-0.228,1.36,inactive

Already shown: an excerpt of the list.
gene,reagent,G2 robust z-score,"G2 cells, % of GMNN control",Outcome
HHIPL1 (HHIP like 1),1,1.58,14.1,inactive
HHIPL1 (HHIP like 1),2,-0.458,-0.254,inactive
HHIPL1 (HHIP like 1),3,-1.13,-4.96,inactive
DRC1 (dynein regulatory complex subunit 1),1,-0.259,1.14,inactive
DRC1 (dynein regulatory complex subunit 1),2,1.6,14.2,inactive
DRC1 (dynein regulatory complex subunit 1),3,0.268,4.85,inactive
SFMBT2 (Scm like with four mbt domains 2),1,1.92,16.4,inactive
SFMBT2 (Scm like with four mbt domains 2),2,-0.973,-3.88,inactive
SFMBT2 (Scm like with four mbt domains 2),3,-0.701,-1.96,inactive
